Among the data in PubChem BioAssay AID651706 (NMMLSC, 2012) are double positive cells values, retold here.

The list shows a part of the results. Further columns of the screen follow, without active or inactive calls. The list favours compounds with an active or inconclusive main result.

This assay is described as follows: differentiation of ER-HoxA9 arrested myeloid cells – cell-based, GFP/Mac1 flow cytometry, cherry pick 01, confirmation (AID 651706).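 Further: share of live cells carrying both lysozyme GFP and MAC1 staining after four days; test concentration not given here.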 As to conditions: ER-HoxA9 myeloid progenitors, measured here: percent double positive cells, stronger effect = higher value.
In turn, `CC(=O)Nc1ccc(C2=CC(=O)C[C@H](c3ccc(Cl)cc3)C2)cc1` came in with a double positive cells of 5.65%.

With `Cn1c(=O)c2cc(NC(=O)NCc3ccc(F)cc3)ccc2n1C/C=C/c1ccccc1`, the double positive cells is 51.9%. Turning to `O=C(O)c1ccccc1N/N=C/c1c(Sc2nnnn2-c2ccccc2)nc2ccccn2c1=O`, the double positive cells amounted to 5.65%. `O=c1[nH][nH]cc1C=Nc1ccccc1O`: the double positive cells is 8.3%. In turn, `C#CC[N+](CC)(CC)CC#Cc1ccccc1` showed a double positive cells of 5%.

Consider `O=C(O)c1ccccc1Nc1ccc([N+](=O)[O-])cc1`, for which the double positive cells was determined as 19.5%.

The compound `CCCCOc1ccc(OC(=O)Nc2cc(Cl)ccc2OC)cc1` registered a double positive cells of 2.15%. The figure for `Nc1ccc(C#Cc2ccc3c(=O)c4ccccc4oc3c2)cc1` is 5.7%; for `CCC(CO)n1c(SCc2cc(=O)oc3cc(C)ccc23)nc2ccccc2c1=O` (stereo not drawn) it is 5%. For `Clc1ccc(Cn2ncc3c(N4CCN(c5ccccc5)CC4)ncnc32)cc1` the value was 7.2%; for `Cc1ccc(-c2nn3c(C)nnc3s2)cc1NC(=O)CSc1ccc(Cl)cc1`, 10.7%; for `COC(=O)c1cc2c(=O)c3ccccc3oc2nc1/C=C/N(C)C`, 12.1%. The figure for `C/C(N)=C(/C#N)C(=O)COC(=O)c1cc(C)n(-c2ccc(F)cc2)c1C` is 9.35%; for `CCOC(=O)c1c(NC(=O)c2nn(CC)cc2Br)c(C#N)cn1-c1ccccc1` it is 1.6%. Consider `O=C(O)c1cccnc1Nc1ccc(Cl)cc1`, for which the double positive cells turned out to be 11.5%.

Compound `C/C(=C1/SC(N2CCCC2)=NC1=O)c1ccc(Br)cc1` displayed a double positive cells of 14.2%. `O=C(CCNC(=O)c1ccc(Br)cc1)NC1CCCc2ccccc21` (stereo not drawn): the double positive cells is 12.4%. The compound `Cc1cccc(N2CCN(C(=O)c3ccc4c(c3)OCCO4)CC2)c1C` displayed a double positive cells of 5.95%. The figure for `Cc1cccn2cc(COc3ccc(-c4ccccc4)cc3)nc12` is 8.1%; for `COc1ccc(C)cc1NC(=O)n1ncc2cc(Cl)ccc21` it is 5.5%.

`N#C/C(=C\Nc1ccc2cn[nH]c2c1)c1nc(-c2ccc(Cl)cc2)cs1` showed a double positive cells of 5.05%. In turn, `Cc1ccc(Nc2nc(=O)c3cccnc3s2)c(Br)c1` had a double positive cells of 13.4%.

On to `COc1cc2c(cc1OC)-c1cc3ccc4c(c3c[n+]1CC2)OCO4`, for which the double positive cells is 5.05%. Take `COc1ccccc1C1N(c2ccc(Cl)cc2)C(=O)C2CCCN21` (stereo not drawn): the double positive cells came to 11.4%. `CNC(=O)c1c(NC(=O)c2ccc(S(=O)(=O)N3CCCc4ccccc43)cc2)sc2c1CCN(C)C2` had a double positive cells of 8.85%.

Regarding `COc1ccc(/C=C/C(O)=C2/C(=O)N(C)C3(C)CC2c2ccccc2O3)cc1` (stereo not drawn), the double positive cells stood at 6.9%. For `CCCCn1c(N)c(N(CC(C)C)C(=O)Cc2ccc(S(=O)(=O)N3CCOCC3)s2)c(=O)[nH]c1=O` the value was 5.55%; for `CCC(C)Sc1ccc(-c2nc3cc(C)ccn3c2NC2CCCCC2)cc1` (stereo not drawn), 7.1%.

In the case of `CN(Cc1ccc(Cl)c(Cl)c1)C(=O)C1=CC=CN2CCS(=O)(=O)N=C12`, the double positive cells is 5.5%.

As for `CC(=O)c1c(N2CCOCC2)[nH]c(-c2ccccc2)nc1=S`, the double positive cells came out at 12.3%. For `COc1ccc(-n2c(C)cc(/C=C3\SC(=S)N(Cc4ccco4)C3=O)c2C)cc1` the value was 6.85%; for `COc1ccc(/C=C/c2cccc[n+]2C)c(O)c1`, 12.1%; for `N#C/C(=C\N1CCN(Cc2ccc3c(c2)OCO3)CC1)c1nc2ccccc2s1`, 7.4%. Take `CCCc1nc2c3ccccc3ccn2c1Cc1ccc(OC)cc1C`: the double positive cells was determined as 14.2%. Take `O=[N+]([O-])c1ccc(C[n+]2cccc3c4ccccc4ccc32)cc1`: the double positive cells amounted to 5.35%. As for `C[n+]1ccccc1/C=C/c1ccc2ncccc2c1`, the double positive cells stood at 4.55%. Compound `Cn1ccc2c(-c3ccc(C(C)(C)C)cc3)cc3c(c21)C1CCC3O1` (stereo not drawn) yielded a double positive cells of 7.2%. `CCS(=O)(=O)c1nc(S(=O)(=O)c2ccc(Cl)cc2)c(N2CCC3(CC2)OCCO3)s1` gave a double positive cells of 5.55%. In the case of `Brc1ccc(-c2csc3[n+]2CCCCC3)cc1`, the double positive cells was 5.75%. Turning to `COc1ccccc1CN(Cc1nc2ccccc2c(=O)[nH]1)C(=O)Nc1ccc(C)cc1`, the double positive cells was 4.6%. For `C[n+]1c(/C=C/c2ccc3c(c2)OCO3)ccc2ccccc21` the value was 6.1%; for `Cc1nn(-c2ccccc2)c(N2CCCC2)c1/C=N/NC(=S)Nc1ccccc1F`, 8.3%. For `Cc1ccc(OCc2nnc(SCc3nc4ccccc4[nH]3)n2Cc2ccco2)cc1` the value was 17.8%. `COc1ccc(NC2=C(NC(C)=O)C(=O)c3ccccc3C2=O)cc1`: the double positive cells came to 11.3%. For `O=C(CCCN1C(=O)/C(=C/c2ccco2)SC1=S)Nc1cccc(C(=O)O)c1` the value was 5.45%. For `Cn1c(-c2ccccc2)c[n+]2c1-c1ccccc1C2` the value was 5.2%; for `COc1ccc(NC(=S)N2CCC3CC2c2c(Cl)cccc23)c(OC)c1` (stereo not drawn), 13.5%. On to `CCOc1ccccc1Nc1nc2ccc(C)cc2n2cnnc12`, for which the double positive cells is 10.1%.
